PubChem BioAssay AID1053208 – Peter MacCallum Cancer Centre | 2014

Test: 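Genes whose silencing cuts survival of bone tumour cells only with doxorubicin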 (primary screen)
Cells: mouse osteosarcoma cells, early-passage culture from an engineered mouse model of fibroblastic bone tumour
Reagent: siRNA pool against mouse genes, 40 nM
Duration: about 120 h (48 h before drug, then 72 h with drug)
Treatment: doxorubicin 100 nM for 72 h, roughly 30-40% inhibitory dose
Measured: 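Viability read as ATP luminescence after 72 h of 100 nM doxorubicin or none, duplicate wells averaged, scaled to non-targeting siRNA, then expressed as robust z-scores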
Scale: viability z-score with doxorubicin and doxorubicin viability vs non-targeting: higher = more viable cells under doxorubicin; viability z-score without drug: higher = more viable cells with knock-down alone; z-score of drug to no-drug ratio: higher = less drug sensitisation by knock-down
Hit rule: 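Called active if knock-down leaves viability unchanged without drug (z within -2 to 2) but lowers it with doxorubicin (z at or under -2)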
The whole screen tested about 17,000 reagents; below is a part drawn at random. 788 of all reagents (4.7%) were called active. 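Calls rest on z-score classes alone; an extra cut-off of viability at most 70% of control was not applied to them.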 No sequences are given here.

| Gene | combined z-score class | viability z-score with doxorubicin | viability z-score without drug | z-score of drug to no-drug ratio | doxorubicin viability vs non-targeting | Call |
| --- | --- | --- | --- | --- | --- | --- |
| Dnpep | no change with or without drug | 0.9 | 0.84 | 0.45 | 1.02 | inactive |
| Mtm1 | no change with or without drug | 1.8 | -0.84 | 2.7 | 1.1 | inactive |
| Fbf1 | low cell count with doxorubicin only | -2.25 | -0.67 | -1.91 | 0.74 | active |
| Lsm7 | no change with or without drug | 0.79 | -0.17 | 1.01 | 1.01 | inactive |
| Nkiras2 | no change with or without drug | 0.67 | 0.51 | 0.45 | 1 | inactive |
| Pik3r1 | no change with or without drug | -0.34 | 0.84 | -0.79 | 0.91 | inactive |
| Drp2 | no change with or without drug | -0.22 | 0.17 | -0.22 | 0.92 | inactive |
| Ptcd3 | no change with or without drug | -0.11 | 0.51 | -0.34 | 0.93 | inactive |
| Stau1 | no change with or without drug | 1.35 | 1.85 | 0.22 | 1.06 | inactive |
| Gpc4 | no change with or without drug | 0.67 | -0.51 | 1.24 | 1 | inactive |
| Rnf227 | no change with or without drug | 0.11 | 0.51 | -0.11 | 0.95 | inactive |
| Rnf213 | no change with or without drug | 0 | 0.17 | 0 | 0.94 | inactive |
| Nagpa | high cell count with and without drug | 2.25 | 3.2 | 0.22 | 1.14 | inactive |
| Rbms3 | no change with or without drug | 0.22 | -0.51 | 0.67 | 0.96 | inactive |
| Mrpl46 | low cell count without drug only | -0.67 | -2.87 | 1.69 | 0.88 | inactive |
| Vnn1 | no change with or without drug | 0.79 | 0.84 | 0.34 | 1.01 | inactive |
| D1Pas1 | no change with or without drug | -1.57 | 1.52 | -2.36 | 0.8 | inactive |
| Ugt2b38 | no change with or without drug | -0.11 | 0.17 | -0.11 | 0.93 | inactive |
| Cttn | no change with or without drug | 0.22 | -1.18 | 1.24 | 0.96 | inactive |
| Mnx1 | no change with or without drug | 0.9 | -0.84 | 1.69 | 1.02 | inactive |
| H2-Oa | no change with or without drug | 0.9 | -1.18 | 2.02 | 1.02 | inactive |
| Zhx3 | no change with or without drug | 1.12 | -0.17 | 1.46 | 1.04 | inactive |
| Fgr | no change with or without drug | 0.34 | 0.84 | -0.11 | 0.97 | inactive |
| Hmmr | no change with or without drug | -0.67 | -0.84 | 0 | 0.88 | inactive |
| Zfp180 | low cell count without drug only | -0.9 | -2.53 | 1.01 | 0.86 | inactive |
| Siah1a | no change with or without drug | -0.9 | 0.34 | -1.01 | 0.86 | inactive |
| Ppp1r3a | high cell count with doxorubicin only | 2.25 | 0.34 | 2.25 | 1.14 | inactive |
| Msr1 | no change with or without drug | 1.24 | -0.84 | 2.14 | 1.05 | inactive |
| Ctnnbip1 | no change with or without drug | 1.57 | 0.17 | 1.69 | 1.08 | inactive |
| Cadm4 | no change with or without drug | -1.35 | 0.34 | -1.46 | 0.82 | inactive |
| Pcbp2 | no change with or without drug | 1.35 | 1.18 | 0.67 | 1.06 | inactive |
| Hsd3b6 | no change with or without drug | 0 | 0.51 | -0.22 | 0.94 | inactive |
| BC061195 | no change with or without drug | -1.12 | 1.85 | -2.14 | 0.84 | inactive |
| Serf2 | no change with or without drug | 0.79 | -0.17 | 1.01 | 1.01 | inactive |
| Atp2a2 | no change with or without drug | -1.35 | -1.85 | 0 | 0.82 | inactive |
| Acp5 | no change with or without drug | -0.67 | 0.84 | -1.12 | 0.88 | inactive |
| Uox | no change with or without drug | -1.57 | -0.17 | -1.46 | 0.8 | inactive |
| Fam168b | no change with or without drug | -1.35 | -1.35 | -0.45 | 0.82 | inactive |
| Cplx3 | low cell count without drug only | -1.57 | -2.53 | 0.22 | 0.8 | inactive |
| Or6k14 | no change with or without drug | 1.57 | 0.84 | 1.12 | 1.08 | inactive |
| Rab29 | no change with or without drug | 1.12 | -0.17 | 1.46 | 1.04 | inactive |
| Slc6a18 | no change with or without drug | 0.56 | 1.18 | -0.11 | 0.99 | inactive |
| Orm1 | high cell count with doxorubicin only | 2.36 | 0.51 | 2.14 | 1.15 | inactive |
| Potefam1 | no change with or without drug | -0.45 | 1.35 | -1.24 | 0.9 | inactive |
| Or14c41 | no change with or without drug | -1.35 | -0.34 | -1.12 | 0.82 | inactive |
| Mbtps2 | no change with or without drug | 1.57 | 0.84 | 1.12 | 1.08 | inactive |
| Map3k19 | no change with or without drug | 0.45 | -1.18 | 1.46 | 0.98 | inactive |
| Cops2 | no change with or without drug | -0.67 | 0 | -0.56 | 0.88 | inactive |
| Neurod1 | high cell count with doxorubicin only | 2.59 | 0.84 | 2.14 | 1.17 | inactive |
| Tmem132d | no change with or without drug | -0.67 | -0.51 | -0.22 | 0.88 | inactive |

Limited to “viability z-score with doxorubicin”, for 7 of the entries above:
Nkiras2 = 0.67
Pik3r1 = -0.34
Drp2 = -0.22
Ptcd3 = -0.11
Stau1 = 1.35
Gpc4 = 0.67
Rnf227 = 0.11
